Experimental data: patent publication US11512111B2, “Yeats inhibitors and methods of use thereof” (The University of Hong Kong, priority 2017, dated 2022)
Values joined by “and” are separate entries in the source; they are usually repeats but may differ in a detail not shown here. Equal entries are not always repeated. At least one structure is not confirmed: it was looked up by name or label, or the drawing left a doubt. Residues, ends and D or L forms follow the SMILES beside them. *: point of attachment. Oxazole(5-CO) = O=C(c1cnco1)*

The chains behind the UniProt entries cited, without tags or fusion partners. Residues count along the entry.
UniProt O95619, 15-159: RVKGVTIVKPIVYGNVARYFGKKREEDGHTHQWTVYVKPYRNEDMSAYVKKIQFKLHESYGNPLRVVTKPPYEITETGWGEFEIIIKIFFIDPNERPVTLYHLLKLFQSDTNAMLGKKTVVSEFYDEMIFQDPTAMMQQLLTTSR

Assays:
[1] = target: T1, AF9 YEATS domain (Homo sapiens, UniProt P42568); assay: Photo-cross-linking-based competition assay (photoaffinity probe, click chemistry, in-gel fluorescence); assay type: binding; conditions: competition with photoaffinity probe
T1 construct: His-AF9 (1-138); His (N); made in house; host or cells: E. coli Rosetta
T1 sequence (P42568 1-138): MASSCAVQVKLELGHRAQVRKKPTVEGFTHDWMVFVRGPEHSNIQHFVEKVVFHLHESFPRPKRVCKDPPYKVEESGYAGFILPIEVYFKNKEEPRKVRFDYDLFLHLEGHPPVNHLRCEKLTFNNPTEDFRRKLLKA
Method: Mobile phase used were water with 0.1% trifluoroacetic acid (buffer A) and 90% acetonitrile in water with 0.1% trifluoroacetic acid (buffer B). The purity (>95%) and identity of peptides were confirmed by LC-MS. The inhibitory activities of the inhibitors were determined by a photo-cross-linking-based competition assay. […] The reactions were incubated for 1 h at r.t . . . . The reactions were quenched by adding 5 volumes of ice-cold acetone and placed at −20° C. overnight to precipitate proteins. After protein precipitation, samples were centrifuged at 6000×g for 5 min at 4° C. The supernatant was discarded and the pellet was washed with ice-cooled methanol twice and air-dried for 10 min. […] Samples were then resolved by SDS-PAGE. The labeled proteins were visualized by scanning the gel on a Typhoon 9410 variable mode imager (excitation 532 nm, emission filter 580 nm). A photo-cross-linking based method was used in this study to estimate inhibitory activity (FIG. 28). This method requires the use of a photoaffinity probe. The probe (probe 1 (SEQ ID NO:48), see below) is derived from a crotonylated peptide, ligand of the protein, carrying a photo-cross-linker and a terminal alkyne as bioorthogonal. The YEATS domain is incubated and bound to the probe through Kcr-dependent recognition. […] The probe-labeled protein is subsequently conjugated to an azide-functionalized fluorescence dye (for example, rhodamine-N3, Rho-N3) via Cu(I)-catalyzed azide-alkyne cycloaddition (CuAAC, or “click” chemistry). After SDS-PAGE, the protein can be visualized by in-gel fluorescence scanning. […] The in-gel fluorescence intensity detected will also be decreased. By varying the concentration of inhibitor added in the sample and quantifying the resulting fluorescence intensities, a competition curve of the inhibitor toward the protein-probe interaction will be obtained, which can be used to estimate the IC50 value. […] The protein concentration used in the assay can be as low as several nanograms per microliter, while the fluorescence signal can still be robustly detected and quantified.

[2] = target: T2, GAS41 YEATS domain (Homo sapiens, UniProt O95619); assay: Photo-cross-linking-based competition assay; assay type: binding; conditions: competition with photoaffinity probe, in-gel fluorescence
T2 construct: His-Gas41 (15-159); His (N); made in house; host or cells: E. coli Rosetta
Method: (§1) Peptides were synthesized on a Rink-Amide MBHA resin followed by a standard Fmoc-based solid-phase peptide synthesis protocol. After all amino acids were coupled, protecting groups and cleavage of peptides from the resin were done by incubating the resin with a cleavage cocktail containing 95% trifluoroacetic acid, 2.5% triisopropylsilane, 1.5% H2O and, 1% thioanisole for 2 h. Peptides were purified by preparative HPLC with an XBridge Prep OBDTM C18 column (30 mm×250 mm, 10 μm, Waters). Mobile phase used were water with 0.1% trifluoroacetic acid (buffer A) and 90% acetonitrile in water with 0.1% trifluoroacetic acid (buffer B). The purity (>95%) and identity of peptides were confirmed by LC-MS. The inhibitory activities of the inhibitors were determined by a photo-cross-linking-based competition assay.
(§2) The probe 4.1 or 4.2 (2 μM) with indicated concentrations of different inhibitors was incubated with YEATS domain proteins (5 or 20 ng/μL) in binding buffer (50 mM HEPES, 150 mM NaCl, 2 mM MgCl2, 0.1% Tween-20, 20% glycerol, pH 7.5, with or without 50 ng/μL BSA) for 10 min at 4° C. Then, the samples were irradiated at 365 nm using a UV lamp for 20 min in a 96-well plate on ice.
(§3) To the prepared photo-cross-linking samples, 100 μM Rho-N3 (10 mM stock in DMSO) was added, followed by 1 mM TCEP (freshly prepared 50 mM stock in H2O), 100 μM TBTA (10 mM stock in DMSO), and finally the reactions were initiated by the addition of 1 mM CuSO4 (freshly prepared 50 mM stock in H2O). The reactions were incubated for 1 h at r.t . . . . The reactions were quenched by adding 5 volumes of ice-cold acetone and placed at −20° C. overnight to precipitate proteins.
(§4) After protein precipitation, samples were centrifuged at 6000×g for 5 min at 4° C. The supernatant was discarded and the pellet was washed with ice-cooled methanol twice and air-dried for 10 min. […]
(§5) The YEATS domain is incubated and bound to the probe through Kcr-dependent recognition. […] The probe-labeled protein is subsequently conjugated to an azide-functionalized fluorescence dye (for example, rhodamine-N3, Rho-N3) via Cu(I)-catalyzed azide-alkyne cycloaddition (CuAAC, or “click” chemistry). After SDS-PAGE, the protein can be visualized by in-gel fluorescence scanning. […] The in-gel fluorescence intensity detected will also be decreased. By varying the concentration of inhibitor added in the sample and quantifying the resulting fluorescence intensities, a competition curve of the inhibitor toward the protein-probe interaction will be obtained, which can be used to estimate the IC50 value. […] The protein concentration used in the assay can be as low as several nanograms per microliter, while the fluorescence signal can still be robustly detected and quantified. […]

[3] = target: T3, YEATS2 domain (Homo sapiens, UniProt Q9ULM3); assay: Photo-cross-linking-based competition assay; assay type: binding; conditions: competition with photoaffinity probe, in-gel fluorescence
T3 construct: His-SUMO-YEATS2 (201-332); His (N); SUMO (N); made in house; host or cells: E. coli Rosetta
T3 sequence (Q9ULM3 201-332): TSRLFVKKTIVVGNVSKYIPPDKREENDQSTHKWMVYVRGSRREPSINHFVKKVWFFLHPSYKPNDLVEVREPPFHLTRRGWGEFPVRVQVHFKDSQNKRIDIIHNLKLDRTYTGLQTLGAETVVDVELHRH
Method: as §1, §2, §3, §4, §5

[4] = target: T1, AF9 YEATS domain; assay: Isothermal titration calorimetry (ITC); assay type: binding
Method: (§6) ^1H and ^13C NMR spectra were recorded on Bruker UltraShield 400 or 600 MHz spectrometers and were calibrated using residual undeuterated solvent as an internal reference. Chemical shifts were reported in ppm, and coupling constant J was reported in Hz. Peptides were analyzed by LC-MS with an Agilent 1260 Infinity HPLC system connected to a Thermo Finnigan LCQ DecaXP MS detector. Peptides were purified on a preparative HPLC system with Waters 2535 Quaternary Gradient Module, Waters 515 HPLC pump, Waters SFO System Fluidics Organizer, and Waters 2767 Sample Manager. Photo-cross-linking was performed with an ENF-260C/FE hand-hang UV lamp (Spectroline). In-gel fluorescence scanning was performed using a Typhoon 9410 variable mode imager from GE Healthcare Life Sciences (excitation 532 nm, emission 580 nm). Images of Coomassie blue staining were acquired by MyECL Imager from Thermo Scientific. All images were processed by ImageJ software (National Institutes of Health), and contrast was adjusted appropriately. ITC experiments were performed with a MicroCal iTC200 titration calorimeter (MicroCal). IC50 and dissociation constants were fit with Origin 7.0 software package (OriginLab).
To further validate the reliability of the results obtained from the photo-cross-linking-based competition assay, we performed isothermal titration calorimetry (ITC) to determine the direct binding affinities of the inhibitors toward the AF9 YEATS domain. […] The ITC measurements were in agreement with the IC50 data, indicating the reliability of the results obtained from the photo-cross-linking-based competition assay.

[5] = target: T4, ENL YEATS domain (Homo sapiens, UniProt Q03111); assay: Isothermal titration calorimetry (ITC); assay type: binding
T4 construct: His-SUMO-ENL (1-138); His (N); SUMO (N); made in house; host or cells: E. coli Rosetta
T4 sequence (Q03111 1-138): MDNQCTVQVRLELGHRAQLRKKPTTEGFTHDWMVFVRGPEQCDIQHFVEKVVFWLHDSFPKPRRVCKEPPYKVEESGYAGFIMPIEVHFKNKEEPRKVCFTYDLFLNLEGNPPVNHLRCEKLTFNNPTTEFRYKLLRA
Method: as §6
The compound Cyclic 3 was also tested with AF9 and ENL YEATS domains.

[6] = target: T5, AF9 (Homo sapiens, UniProt P42568); assay: ChIP-qPCR of AF9 target genes in HeLa cells; assay type: cell-based; conditions: 50 μM
T5 construct: endogenous in cells; host or cells: HeLa
T5 sequence (P42568 1-568): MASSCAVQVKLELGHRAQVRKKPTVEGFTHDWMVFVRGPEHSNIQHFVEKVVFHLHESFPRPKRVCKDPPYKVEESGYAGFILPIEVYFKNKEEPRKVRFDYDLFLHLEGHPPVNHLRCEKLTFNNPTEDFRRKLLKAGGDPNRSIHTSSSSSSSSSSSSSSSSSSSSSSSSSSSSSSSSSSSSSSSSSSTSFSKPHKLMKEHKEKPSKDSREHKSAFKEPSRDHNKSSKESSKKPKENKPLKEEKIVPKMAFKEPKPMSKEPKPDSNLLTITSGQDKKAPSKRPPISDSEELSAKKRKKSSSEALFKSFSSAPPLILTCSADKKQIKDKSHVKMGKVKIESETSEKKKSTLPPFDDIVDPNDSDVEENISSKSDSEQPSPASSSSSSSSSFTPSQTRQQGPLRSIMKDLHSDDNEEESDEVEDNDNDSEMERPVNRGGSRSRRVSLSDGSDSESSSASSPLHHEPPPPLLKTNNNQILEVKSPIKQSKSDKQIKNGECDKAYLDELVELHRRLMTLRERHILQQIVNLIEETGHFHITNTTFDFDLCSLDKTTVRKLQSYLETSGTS

[7] = tested on: AF9 target genes; assay: RT-qPCR of mRNA levels of AF9 target genes in HeLa cells; assay type: cell-based; conditions: 50 μM
[8] = target: T4, ENL YEATS domain; assay: Photo-cross-linking-based competition assay; assay type: binding; conditions: competition with photoaffinity probe, in-gel fluorescence

CC(=O)N[C@@H](C)C(=O)N[C@@H](CCCNC(=N)N)C(=O)N[C@@H](CCCCNC(=O)c1cnco1)C(N)=O [Compound 39]
IC50 [1]: 2.5 µM
IC50 [2]: 52.9 µM
IC50 [3]: 213 µM

C[C@@H]1NC(=O)[C@H]([C@H](C)O)NC(=O)[C@@H](NC(=O)OCc2ccccc2)CCCCNC(=N)NCCC[C@H](C(=O)N[C@@H](CCCCNC(=O)c2cnco2)C(N)=O)NC1=O [Compound 80]
ΔG [4]: -8.54 kcal/mol
ΔS [4]: −13.77 cal/mol/deg
ΔH ([4]; Table 4): -12.69 kcal/mol
ΔG [5]: -6.72 kcal/mol
ΔH [5]: -7.06 kcal/mol
ΔS [5]: −1.05 cal/mol/deg
abundance of AF9 at HOXA10, MYC, and PABPC2 [6]: decreased
transcription levels of AF9 target genes MYC, PABPC1, and HOXA9 [7]: loss in the transcription levels

CC(=O)N[C@@H](C)C(=O)N[C@@H](C)C(=O)N[C@@H](CCCNC(=N)N)C(=O)N[C@@H](CCCCNC(=O)c1cnco1)C(N)=O [Compound 40] (Ac-AARK(Oxazole(5-CO))-NH2)
IC50 [1]: 1.7 µM
IC50 [2]: 35.5 µM
IC50 [3]: 239 µM

C[C@@H]1NC(=O)[C@H]([C@@H](C)O)NC(=O)[C@@H](NC(=O)OCc2ccccc2)CCCCNC(=N)NCCCC[C@@H](C(=O)N[C@@H](CCCCNC(=O)c2ccco2)C(N)=O)NC1=O [Compound 79]
IC50 [1]: 1.8 µM and 2.2 µM
IC50 [8]: 14.5 µM
